Patent US5756355A, “Lipid membrane sensors” (Ecole Polytechnique Federale de Lausanne, priority 1992, dated 1998)

Columns and labels:
[1] = Electrical properties of mixed bilayers with mixed thiolipid/phospholipid first layer on gold electrode (Example 6); type: physicochemical
[2] = Capacitance and resistance of pure thiolipid layers and thiolipid/phospholipid bilayers on gold electrode (Example 5); type: physicochemical

SMILES | capacitance of final stable mixed bilayers on the gold electrodes [1] | Capacitance of bilayer membranes of pure thiolipid/phospholipid ([2]; second layer phospholipid DMPC) [μF/cm^2] | Capacitance of bilayer membranes of pure thiolipid/phospholipid ([2]; second layer phospholipid DPPC) [μF/cm^2] | Capacitance of bilayer membranes of pure thiolipid/phospholipid ([2]; second layer phospholipid POPC) [μF/cm^2]
CCCCCCCCCCCCCC(=O)OC[C@H](COP(=O)([O-])OCC[N+](C)(C)C)OC(=O)CCCCCCCCCCCCC [DMPC] | 0.8 (±10%) μF/cm^2 |  |  | 
CCCCCCCCCCCCCCCC(=O)OC[C@H](COP(=O)(O)OCCOCCOCCSSCCOCCOCCOP(=O)(O)OC[C@@H](COC(=O)CCCCCCCCCCCCCCC)OC(=O)CCCCCCCCCCCCCCC)OC(=O)CCCCCCCCCCCCCCC [Ex. 1, bis[8-(1,2-dipalmitoyl-sn-glycero-3-phosphoryl) 3,6-dioxaoctyl]disulfide monohydrate] |  | 0.80 ± 0.01 | 0.72 ± 0.01 | 0.78 ± 0.03
CCCCCCCCCCCCCCCC(=O)OC[C@H](COP(=O)(O)OCCOCCSSCCOCCOP(=O)(O)OC[C@@H](COC(=O)CCCCCCCCCCCCCCC)OC(=O)CCCCCCCCCCCCCCC)OC(=O)CCCCCCCCCCCCCCC [Ex. 3, Bis[5-(1,2-dipalmitoyl-sn-glycero-3-phosphoryl) -3-oxapentyl]disulfide monohydrate] |  | 0.80 ± 0.02 | 0.72 ± 0.05 | 0.77 ± 0.02
CCCCCCCC/C=C\CCCCCCCC(=O)O[C@H](COC(=O)CCCCCCCCCCCCCCC)COP(=O)([O-])OCC[N+](C)(C)C [POPC, 1-palmitoyl-2-oleoyl-sn-glycero-3-phosphocholine] | 0.8 (±10%) μF/cm^2 |  |  | 
